Measured values from patent publication US20250002476A1, “AZOLE COMPOUNDS FOR CONTROLLING INVERTEBRATE PESTS” (FMC Corporation, priority 2021, published 2025).
Some of these results come from one statement about several compounds together. At least one compound was matched to its structure with a doubt left.

Tests used:
Assay type in all cases: in vivo
[1] = system: cotton melon aphid (Aphis gossypii (Glover)); assay: Test E: control of cotton melon aphid on sprayed okra plant; conditions: pre-infested, 6 days
Description: (§1) Test compounds were formulated using a solution containing 10% acetone, 90% water and 300 ppm Activator 90@ non-ionic surfactant (Loveland Products, Loveland, Colorado, USA). The formulated compounds were applied in 1 mL of liquid through an atomized nozzle positioned 1.27 cm (0.5 inches) above the top of each test unit. Test compounds were sprayed at the rates indicated, and each test was replicated three times.
For evaluating control of cotton melon aphid (Aphis gossypii (Glover)) through contact and/or systemic means, the test unit consisted of a small open container with a 5-day-old okra plant inside. This was pre-infested with 30-40 insects on a piece of leaf according to the cut-leaf method, and the soil of the test unit was covered with a layer of sand.
Test compounds were formulated and sprayed at 250, 50, 10 and 2 ppm. After spraying, the test units were maintained in a growth chamber for 6 days at 19° C. and 70% relative humidity. Each test unit was then visually assessed for insect mortality.

[2] = system: Corn Planthopper (Peregrinus maidis (Ashmead)); assay: Test B: control of Corn Planthopper on sprayed corn plant; conditions: nymphs, 6 days
Description: as §1
For evaluating control of Corn Planthopper (Peregrinus maidis (Ashmead)) through contact and/or systemic means, the test unit consisted of a small open container with a 3-4-day-old corn (maize) plant inside. White sand was added to the top of the soil prior to application of the test compound.
Test compounds were formulated and sprayed at 250, 50 and 10 ppm. After spraying of the formulated test compound, the test units were allowed to dry for 1 h before they were post-infested with ˜15-20 nymphs (18-to-21-day-old). A black, screened cap was placed on the top of each test unit, and the test units were held for 6 days in a growth chamber at 22-24° C. and 50-70% relative humidity. Each test unit was then visually assessed for insect mortality.

[3] = system: silverleaf whitefly (Bemisia argentifolii (Bellows and Perring)); assay: Test F: control of silverleaf whitefly on sprayed soybean plant; conditions: pre-infested (oviposition), 12 days
Description: as §1
For evaluating control of silverleaf whitefly (Bemisia argentifolii (Bellows and Perring)) through contact and/or systemic means, each test unit consisted of a small open container with a 5-7 day old soybean plant inside. This was pre-infested by placing test units into cages containing adult whiteflies so that oviposition on the leaves could occur. The adults were removed from the plants with an air-blast nozzle, and the test units were capped. The test units were then stored 2 to 3 days before spraying.
Test compounds were formulated and sprayed at 250 and 50 ppm. After spraying, the test units were maintained in a growth chamber for 12 days at 23° C. and 70% relative humidity. Each test unit was then visually assessed for insect mortality.

## CCC#CCn1cc(-c2cc(Cl)cc(Cl)c2)nn1 [Compound 16]
[1]; sprayed at 50 ppm
  mortality: at least 80%

## CCC#CCn1nnc(-c2ccc(C#N)cc2)n1 [Compound 61]
[1]; sprayed at 250 ppm
  mortality: at least 80%
[2]; sprayed at 250 ppm
  mortality: at least 80%

## CCC#CCn1nnc(-c2ccc(C#N)c(F)c2)n1 [Compound 348]
[1]; sprayed at 250 ppm
  mortality: at least 80%
[2]; sprayed at 250 ppm
  mortality: at least 80%

## CCC#CCn1nnc(-c2cccc(OC)c2)n1 [Compound 55]
[1]; sprayed at 50 ppm
  mortality: at least 80%
[2]; sprayed at 50 ppm
  mortality: at least 80%

## CCC#CCn1cc(-c2cccc(OC)c2)nn1 [Compound 24]
[1]; sprayed at 250 ppm
  mortality: at least 80%

## CCC#CCn1nnc(-c2ccc(C#N)c(Cl)c2)n1 [Compound 324]
[1]; sprayed at 250 ppm
  mortality: at least 80%

## CCC#CCn1ncc(-c2cc(C)cc(OC)c2)n1 [Compound 294]
[1]; sprayed at 50 ppm
  mortality: at least 80%

## CCC#CCn1nnc(-c2cccc(OC)c2F)n1 [Compound 161]
[1]; sprayed at 250 ppm
  mortality: at least 80%
[2]; sprayed at 250 ppm
  mortality: at least 80%

## CCC#CCn1nnc(-c2ccc(F)c(Br)c2)n1 [Compound 148]
[3]; sprayed at 50 ppm
  mortality: at least 50%

## CCC#CCn1ncc(-c2cc(Cl)cc(OC)c2)n1 [Compound 295]
[1]; sprayed at 50 ppm
  mortality: at least 80%

## CCC#CCn1nnc(-c2cccc(Br)c2)n1 [Compound 51]
[1]; sprayed at 50 ppm
  mortality: at least 80%

## CCC#CCn1nnc(-c2cc(C)cc(Br)c2)n1 [Compound 163]
[3]; sprayed at 250 ppm
  mortality: at least 50%

## CCC#CCn1ncc(-c2ccc([S+]([O-])C(F)(F)F)cc2)n1 (centres unmarked) [Compound 339]
[1]; sprayed at 250 ppm
  mortality: at least 80%

## CCC#CCn1nnc(-c2ccc(C)c(C#N)c2)n1 [Compound 328]
[1]; sprayed at 50 ppm
  mortality: at least 80%
[2]; sprayed at 50 ppm
  mortality: at least 80%

## CCC#CCn1nnc(-c2ccccc2)c1C [Compound 119]
[1]; sprayed at 250 ppm
  mortality: at least 80%

## CCC#CCn1ncc(-c2cc(F)cc(C(F)(F)F)c2)n1 [Compound 262]
[3]; sprayed at 50 ppm
  mortality: at least 50%

## CCC#CCn1nnc(-c2ccc(OC)c(Cl)c2)n1 [Compound 318]
[1]; sprayed at 250 ppm
  mortality: at least 80%

## CCC#CCn1ncc(-c2ccccc2)n1 [Compound 100]
[2]; sprayed at 250 ppm
  mortality: at least 80%

## CCC#CCn1ncc(-c2cc(C#N)cc(C(F)(F)F)c2)n1 [Compound 225]
[1]; sprayed at 250 ppm
  mortality: at least 80%

## CCC#CCn1nnc(-c2cc(C)cc(OC)c2)n1 [Compound 301]
[1]; sprayed at 50 ppm
  mortality: at least 80%

## CCC#CCn1nnc(-c2cc(C)cc(C)c2)n1 [Compound 209]
[3]; sprayed at 250 ppm
  mortality: at least 50%

## CCC#CCn1nnc(-c2c(F)cc(Br)cc2F)n1 [Compound 196]
[1]; sprayed at 250 ppm
  mortality: at least 80%
[2]; sprayed at 50 ppm
  mortality: at least 80%

## CCC#CCn1ncc(-c2cccc(Cl)c2)n1 [Compound 104]
[1]; sprayed at 50 ppm
  mortality: at least 80%
[2]; sprayed at 50 ppm
  mortality: at least 80%

## CCC#CCn1nnc(-c2cc(OC)cc(OC)c2)n1 [Compound 217]
[1]; sprayed at 50 ppm
  mortality: at least 80%

## CCC#CCn1nnc(-c2cncc(C#N)c2)n1 [Compound 228]
[1]; sprayed at 250 ppm
  mortality: at least 80%

## CCC#CCn1nnc(-c2ccc(C)c(F)c2)n1 [Compound 167]
[3]; sprayed at 250 ppm
  mortality: at least 50%

## CCC#CCn1nnc(-c2cc(C#N)cc(C#N)c2)n1 [Compound 238]
[1]; sprayed at 250 ppm
  mortality: at least 80%

## CCC#CCn1cc(-c2cccc(C)c2)nn1 [Compound 21]
[1]; sprayed at 250 ppm
  mortality: at least 80%
[2]; sprayed at 250 ppm
  mortality: at least 80%

## CCC#CCn1nnc(-c2ccc(C(F)F)cc2)n1 [Compound 45]
[1]; sprayed at 50 ppm
  mortality: at least 80%
[2]; sprayed at 50 ppm
  mortality: at least 80%

## CCC#CCn1nnc(-c2ccc(OC)c(C(F)(F)F)c2)n1 [Compound 322]
[1]; sprayed at 50 ppm
  mortality: at least 80%
[2]; sprayed at 250 ppm
  mortality: at least 80%

## CCC#CCn1nnc(-c2cccc(C#N)c2)n1 [Compound 56]
[1]; sprayed at 50 ppm
  mortality: at least 80%
[2]; sprayed at 50 ppm
  mortality: at least 80%

## CCC#CCn1cc(-c2cccc(C#N)c2)nn1 [Compound 27]
[1]; sprayed at 50 ppm
  mortality: at least 80%
[2]; sprayed at 50 ppm
  mortality: at least 80%

## CCC#CCn1cc(-c2cccc(C(F)(F)F)c2)nn1 [Compound 23]
[1]; sprayed at 250 ppm
  mortality: at least 80%

## CCC#CCn1nnc(-c2c(F)cc(Cl)cc2F)n1 [Compound 195]
[1]; sprayed at 50 ppm
  mortality: at least 80%
[2]; sprayed at 50 ppm
  mortality: at least 80%

## CCC#CCn1cc(-c2ccc(F)cc2)nn1 [Compound 4]
[2]; sprayed at 50 ppm
  mortality: at least 80%

## CCC#CCn1cc(-c2cc(Cl)cc(OC)c2)nn1 [Compound 297]
[1]; sprayed at 250 ppm
  mortality: at least 80%

## CCC#CCn1nnc(-c2ccc(Cl)nc2)n1 [Compound 190]
[1]; sprayed at 50 ppm
  mortality: at least 80%

## CCC#CCn1cc(-c2cc(F)cc(C(F)(F)F)c2)nn1 [Compound 265]
[1]; sprayed at 250 ppm
  mortality: at least 80%
[2]; sprayed at 50 ppm
  mortality: at least 80%

## CCC#CCn1ncc(-c2cc(OC)cc(OC)c2)n1 [Compound 182]
[1]; sprayed at 250 ppm
  mortality: at least 80%

## CCC#CCn1ncc(-c2cc(F)cc(OC)c2)n1 [Compound 263]
[1]; sprayed at 250 ppm
  mortality: at least 80%
[2]; sprayed at 50 ppm
  mortality: at least 80%

## CCC#CCn1cc(-c2cc(C)cc(C)c2)nn1 [Compound 200]
[1]; sprayed at 250 ppm
  mortality: at least 80%

## CCC#CCn1nnc(-c2cc(C#N)cc(OC)c2)n1 [Compound 259]
[1]; sprayed at 250 ppm
  mortality: at least 80%

## CCC#CCn1nnc(-c2ccc(C(F)(F)F)cc2C)n1 [Compound 317]
[1]; sprayed at 250 ppm
  mortality: at least 80%
[2]; sprayed at 50 ppm
  mortality: at least 80%

## CCC#CCn1nnc(-c2ccc(Br)c(OC)c2)n1 [Compound 160]
[1]; sprayed at 250 ppm
  mortality: at least 80%
[2]; sprayed at 250 ppm
  mortality: at least 80%

## CCC#CCn1cc(-c2cc(F)cc(OC)c2)nn1 [Compound 266]
[1]; sprayed at 250 ppm
  mortality: at least 80%

## CCC#CCn1nnc(-c2cc(Cl)cc(C#N)c2)n1 [Compound 215]
[1]; sprayed at 50 ppm
  mortality: at least 80%
[2]; sprayed at 250 ppm
  mortality: at least 80%

## CCC#CCn1ncc(-c2cc(C)cc(C#N)c2)n1 [Compound 224]
[1]; sprayed at 50 ppm
  mortality: at least 80%

## CCC#CCn1cc(-c2cccc(F)c2)nn1 [Compound 7]
[1]; sprayed at 250 ppm
  mortality: at least 80%
[2]; sprayed at 250 ppm
  mortality: at least 80%

## CCC#CCn1nnc(-c2ccc(OC)c(F)c2)n1 [Compound 165]
[1]; sprayed at 250 ppm
  mortality: at least 80%
[2]; sprayed at 250 ppm
  mortality: at least 80%

## CCC#CCn1ncc(-c2cccc(OC)c2)n1 [Compound 107]
[1]; sprayed at 250 ppm
  mortality: at least 80%
[2]; sprayed at 50 ppm
  mortality: at least 80%

## CCC#CCn1nnc(-c2cc(Cl)c(Cl)c(Cl)c2)n1 [Compound 314]
[1]; sprayed at 50 ppm
  mortality: at least 80%

## CCC#CCn1ncc(-c2cc(C)cc(F)c2)n1 [Compound 261]
[1]; sprayed at 50 ppm
  mortality: at least 80%
[2]; sprayed at 50 ppm
  mortality: at least 80%

## CCC#CCn1nnc(-c2cc(F)cc(OC)c2)n1 [Compound 293]
[1]; sprayed at 50 ppm
  mortality: at least 80%
[2]; sprayed at 50 ppm
  mortality: at least 80%

## CCC#CCn1cc(-c2cc(C)cc(OC)c2)nn1 [Compound 296]
[1]; sprayed at 250 ppm
  mortality: at least 80%

## CCC#CCn1nnc(-c2ccc(OC)cc2)n1 [Compound 59]
[1]; sprayed at 250 ppm
  mortality: at least 80%
[2]; sprayed at 250 ppm
  mortality: at least 80%

## CCC#CCn1nnc(-c2ccc(Cl)c(C#N)c2)n1 [Compound 331]
[1]; sprayed at 50 ppm
  mortality: at least 80%
[2]; sprayed at 50 ppm
  mortality: at least 80%

## CCC#CCn1nnc(-c2cc(Cl)cc(OC)c2)n1 [Compound 287]
[1]; sprayed at 50 ppm
  mortality: at least 80%

## CCC#CCn1cc(-c2ccc(F)cc2F)nn1 [Compound 5]
[2]; sprayed at 50 ppm
  mortality: at least 80%

## CCC#CCn1nnc(-c2ccc(C(F)(F)F)c(OC)c2)n1 [Compound 345]
[1]; sprayed at 50 ppm
  mortality: at least 80%
[2]; sprayed at 250 ppm
  mortality: at least 80%

## CCC#CCn1cc(-c2cccc(Cl)c2)nn1 [Compound 22]
[1]; sprayed at 250 ppm
  mortality: at least 80%
[2]; sprayed at 50 ppm
  mortality: at least 80%

## CCC#CCn1ncc(-c2cccc(Br)c2)n1 [Compound 105]
[1]; sprayed at 250 ppm
  mortality: at least 80%
[2]; sprayed at 50 ppm
  mortality: at least 80%

## CCC#CCn1ncc(-c2cc(Br)cc(OC)c2)n1 [Compound 260]
[1]; sprayed at 250 ppm
  mortality: at least 80%

## CCC#CCn1ncc(-c2cc(Cl)cc(C#N)c2)n1 [Compound 178]
[1]; sprayed at 250 ppm
  mortality: at least 80%

## CCC#CCn1cc(-c2cc(C)cc(F)c2)nn1 [Compound 264]
[1]; sprayed at 250 ppm
  mortality: at least 80%

## CCC#CCn1nc(Br)c(-c2ccc(C(F)(F)F)cc2)n1 [Compound 77]
[1]; sprayed at 250 ppm
  mortality: at least 80%

## CCC#CCn1cc(-c2cccc(Br)c2)nn1 [Compound 20]
[1]; sprayed at 250 ppm
  mortality: at least 80%
[2]; sprayed at 250 ppm
  mortality: at least 80%

## CCC#CCn1nnc(-c2cc(C#N)cc(C(F)(F)F)c2)n1 [Compound 227]
[1]; sprayed at 50 ppm
  mortality: at least 80%
[2]; sprayed at 250 ppm
  mortality: at least 80%

## CCC#CCn1nnc(-c2ccc(C#N)c(C(F)(F)F)c2)n1 [Compound 320]
[1]; sprayed at 50 ppm
  mortality: at least 80%
[2]; sprayed at 250 ppm
  mortality: at least 80%

## CCC#CCn1cc(-c2cc(C)cc(C(F)(F)F)c2)nn1 [Compound 268]
[1]; sprayed at 250 ppm
  mortality: at least 80%
[2]; sprayed at 250 ppm
  mortality: at least 80%
